Experimental data published in the supplement of paper PMC10849652.
The other results are listed elsewhere or left out.

Chains of the proteins cited; added tags and fusions are not shown. Lines headed by an entry give the natural chain unless they say otherwise; changes in a name come on top.
UniProt P60604: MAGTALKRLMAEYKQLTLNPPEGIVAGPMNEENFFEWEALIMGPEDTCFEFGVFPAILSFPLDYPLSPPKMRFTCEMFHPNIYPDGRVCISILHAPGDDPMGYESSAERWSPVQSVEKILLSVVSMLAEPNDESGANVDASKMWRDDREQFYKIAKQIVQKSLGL
UniProt A2RUC4: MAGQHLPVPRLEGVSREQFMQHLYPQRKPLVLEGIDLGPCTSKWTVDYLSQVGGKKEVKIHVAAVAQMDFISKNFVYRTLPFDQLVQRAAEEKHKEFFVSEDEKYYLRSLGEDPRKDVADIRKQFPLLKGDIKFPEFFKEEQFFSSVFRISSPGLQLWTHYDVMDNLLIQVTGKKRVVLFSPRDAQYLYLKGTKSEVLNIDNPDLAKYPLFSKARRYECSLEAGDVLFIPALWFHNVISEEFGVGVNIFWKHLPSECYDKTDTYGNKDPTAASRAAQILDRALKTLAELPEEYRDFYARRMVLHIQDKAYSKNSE
UniProt O94941: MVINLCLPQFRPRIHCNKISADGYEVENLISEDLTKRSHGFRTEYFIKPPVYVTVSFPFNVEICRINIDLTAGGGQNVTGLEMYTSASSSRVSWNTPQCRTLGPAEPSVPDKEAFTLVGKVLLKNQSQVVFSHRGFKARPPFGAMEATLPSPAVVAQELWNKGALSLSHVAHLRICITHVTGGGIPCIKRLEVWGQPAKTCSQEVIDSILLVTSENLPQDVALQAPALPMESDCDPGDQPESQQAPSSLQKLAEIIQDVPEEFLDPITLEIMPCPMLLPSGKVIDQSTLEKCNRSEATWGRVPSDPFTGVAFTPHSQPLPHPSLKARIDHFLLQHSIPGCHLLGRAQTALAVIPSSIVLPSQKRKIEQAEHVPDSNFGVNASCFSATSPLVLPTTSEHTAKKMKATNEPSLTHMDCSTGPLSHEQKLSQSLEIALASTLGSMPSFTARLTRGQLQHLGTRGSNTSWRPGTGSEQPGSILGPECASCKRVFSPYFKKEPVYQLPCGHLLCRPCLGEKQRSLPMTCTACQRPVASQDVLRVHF
UniProt Q6ZU65, whole entry, looked up: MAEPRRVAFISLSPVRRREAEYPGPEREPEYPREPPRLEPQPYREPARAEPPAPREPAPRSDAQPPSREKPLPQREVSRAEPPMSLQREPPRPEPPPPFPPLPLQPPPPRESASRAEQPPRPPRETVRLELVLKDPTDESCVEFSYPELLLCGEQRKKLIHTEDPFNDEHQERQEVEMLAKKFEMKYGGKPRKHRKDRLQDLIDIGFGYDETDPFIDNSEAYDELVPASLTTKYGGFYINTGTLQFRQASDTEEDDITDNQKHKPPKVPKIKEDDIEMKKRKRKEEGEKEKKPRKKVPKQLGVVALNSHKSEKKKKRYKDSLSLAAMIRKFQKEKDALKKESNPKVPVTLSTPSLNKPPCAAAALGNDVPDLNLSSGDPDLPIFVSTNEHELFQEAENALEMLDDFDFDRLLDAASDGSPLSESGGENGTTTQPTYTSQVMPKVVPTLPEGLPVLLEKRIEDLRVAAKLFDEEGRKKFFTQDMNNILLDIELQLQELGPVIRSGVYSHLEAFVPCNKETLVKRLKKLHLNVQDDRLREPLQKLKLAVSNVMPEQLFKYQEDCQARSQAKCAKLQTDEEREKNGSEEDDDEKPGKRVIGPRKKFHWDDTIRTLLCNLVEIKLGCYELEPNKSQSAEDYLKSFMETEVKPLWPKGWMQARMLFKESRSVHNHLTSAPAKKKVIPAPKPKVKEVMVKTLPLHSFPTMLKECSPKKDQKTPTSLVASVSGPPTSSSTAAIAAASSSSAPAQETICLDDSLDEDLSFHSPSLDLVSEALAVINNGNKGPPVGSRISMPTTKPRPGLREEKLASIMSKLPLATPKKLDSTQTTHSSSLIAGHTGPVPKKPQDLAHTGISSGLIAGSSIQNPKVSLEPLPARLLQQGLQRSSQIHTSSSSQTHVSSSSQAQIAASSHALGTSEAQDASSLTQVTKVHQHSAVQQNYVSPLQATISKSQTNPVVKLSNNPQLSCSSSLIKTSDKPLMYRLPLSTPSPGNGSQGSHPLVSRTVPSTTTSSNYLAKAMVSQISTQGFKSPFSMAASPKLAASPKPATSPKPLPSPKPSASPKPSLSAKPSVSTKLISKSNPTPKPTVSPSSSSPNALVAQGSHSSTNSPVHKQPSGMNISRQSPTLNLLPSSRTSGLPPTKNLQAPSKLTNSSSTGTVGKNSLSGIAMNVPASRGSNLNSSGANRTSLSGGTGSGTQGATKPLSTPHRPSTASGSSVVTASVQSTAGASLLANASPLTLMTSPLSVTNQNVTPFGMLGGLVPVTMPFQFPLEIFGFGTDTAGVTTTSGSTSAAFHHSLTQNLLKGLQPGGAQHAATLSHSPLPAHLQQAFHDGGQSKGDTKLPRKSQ
UniProt O75386: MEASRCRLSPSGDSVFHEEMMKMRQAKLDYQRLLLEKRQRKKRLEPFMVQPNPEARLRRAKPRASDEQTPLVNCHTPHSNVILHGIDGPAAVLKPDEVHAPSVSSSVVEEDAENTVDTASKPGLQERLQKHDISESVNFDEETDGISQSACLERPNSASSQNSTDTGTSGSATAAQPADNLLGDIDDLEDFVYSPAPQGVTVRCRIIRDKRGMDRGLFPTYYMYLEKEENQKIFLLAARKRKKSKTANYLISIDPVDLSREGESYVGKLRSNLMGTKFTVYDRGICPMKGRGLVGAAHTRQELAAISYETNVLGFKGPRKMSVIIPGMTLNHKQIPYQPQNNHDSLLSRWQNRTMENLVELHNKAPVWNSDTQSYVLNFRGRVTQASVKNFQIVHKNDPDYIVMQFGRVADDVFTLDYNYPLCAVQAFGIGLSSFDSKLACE
UniProt O14530: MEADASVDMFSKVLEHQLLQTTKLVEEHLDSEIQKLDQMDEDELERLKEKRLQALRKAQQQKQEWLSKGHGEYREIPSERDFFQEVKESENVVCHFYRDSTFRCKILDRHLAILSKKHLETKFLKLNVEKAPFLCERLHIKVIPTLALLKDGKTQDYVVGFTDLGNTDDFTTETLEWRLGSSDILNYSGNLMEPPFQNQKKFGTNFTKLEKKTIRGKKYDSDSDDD
UniProt O15042: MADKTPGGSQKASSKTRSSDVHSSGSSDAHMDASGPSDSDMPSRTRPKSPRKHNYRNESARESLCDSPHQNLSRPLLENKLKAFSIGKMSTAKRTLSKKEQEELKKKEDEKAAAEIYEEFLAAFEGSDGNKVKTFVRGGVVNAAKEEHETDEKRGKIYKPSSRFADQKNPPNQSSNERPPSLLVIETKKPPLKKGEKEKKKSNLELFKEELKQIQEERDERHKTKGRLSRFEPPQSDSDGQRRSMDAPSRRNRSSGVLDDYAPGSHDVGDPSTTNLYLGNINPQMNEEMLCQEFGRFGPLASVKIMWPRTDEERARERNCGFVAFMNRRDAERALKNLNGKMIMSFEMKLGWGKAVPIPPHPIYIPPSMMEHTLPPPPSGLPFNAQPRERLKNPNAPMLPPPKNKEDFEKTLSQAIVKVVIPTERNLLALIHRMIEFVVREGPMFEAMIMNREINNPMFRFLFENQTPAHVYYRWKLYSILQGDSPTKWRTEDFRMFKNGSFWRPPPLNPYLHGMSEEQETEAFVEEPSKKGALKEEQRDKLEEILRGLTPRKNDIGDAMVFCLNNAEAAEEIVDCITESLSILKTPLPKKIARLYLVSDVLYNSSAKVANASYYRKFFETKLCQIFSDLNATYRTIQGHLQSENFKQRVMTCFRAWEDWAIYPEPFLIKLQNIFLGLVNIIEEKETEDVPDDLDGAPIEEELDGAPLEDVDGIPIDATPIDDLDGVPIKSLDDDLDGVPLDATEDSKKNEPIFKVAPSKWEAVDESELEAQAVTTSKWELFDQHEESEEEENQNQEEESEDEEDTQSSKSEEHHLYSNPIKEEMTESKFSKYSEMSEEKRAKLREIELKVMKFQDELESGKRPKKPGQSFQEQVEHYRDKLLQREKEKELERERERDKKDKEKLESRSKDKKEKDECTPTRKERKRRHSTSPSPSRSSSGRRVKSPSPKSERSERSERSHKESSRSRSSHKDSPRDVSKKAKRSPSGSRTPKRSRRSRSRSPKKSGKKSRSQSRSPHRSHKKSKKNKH

Columns and labels:
Experiment in all cases: log2 fold change, soluble protein after heating vs DMSO (PISA); higher = thermal stabilisation; K562 lysate, 10 uM; active = over 0.2 and 3.5 SD of the protein, either way, in both replicates (recomputed)
[1] = compound: C1=CC=C(C=C1)[C@H](COC2=CC3=C(C=C2)NC(=O)N3)NC(=O)C4=CC=CN(C4=O)CC5=CC(=C(C=C5)F)F
In short: (§1)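 Log-two fold change in thermal stability relative to solvent controls is reported from duplicates. For each sample, crude K562 extract from dounce-homogenised pellets in PBS pH 7.4 with 1 mM MgCl2, at 1 mg/mL protein, was treated with 10 μM compound for 30 min. Aliquots heated for 3 min across 48°C-58°C were pooled, brought to 0.5% NP-40 at 4°C and cleared at 21,000xg for 90 min. The supernatant was quantified by TMTpro 16plex LC-MS/MS with channel sums equalised.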

[2] = compound: CC1=C(SC2=C1C(=N[C@H](C3=NN=C(N32)C)CC(=O)N)C4=CC=C(C=C4)Cl)C
In short: as §1

[3] = compound: CC1=C2C(=CC=C1)N=C(N(C2=O)C3=CC=CC=C3C)CN4C=NC5=C(N=CN=C54)N
In short: as §1

[4] = compound: c1ccc([C@@H]2C[C@H]2NC2CCNCC2)cc1
In short: as §1

[5] = compound: Cc1sc2c(c1C)C(c1ccc(Cl)cc1)=N[C@@H](CC(=O)OC(C)(C)C)c1nnc(C)n1-2
In short: as §1

TUBB4A (UniProt M0QYM7) was tested, and the log2 fold change [1] was inactive: -0.207, the log2 fold change [2] was inactive: -0.162 and the log2 fold change [3] was inactive: 0.016. For the same target, the log2 fold change [4] was inactive: -0.074.

For UBE2G2 (UniProt P60604), the log2 fold change [3] was inactive: 0.024, the log2 fold change [5] was inactive: 0.127 and the log2 fold change [4] was inactive: -0.137.

TYW5 (UniProt A2RUC4) was tested, and the log2 fold change [1] was inactive: 0.011, the log2 fold change [2] was inactive: -0.19 and the log2 fold change [4] was inactive: 0.034.

With UBOX5 (UniProt O94941) the log2 fold change [5] was inactive: 0.119 and the log2 fold change [4] was inactive: -0.202.

In the case of UBA52 (UniProt P62987), the log2 fold change [1] was inactive: 0.143, the log2 fold change [2] was inactive: -0.054 and the log2 fold change [4] was inactive: -0.066.

With UBN2 (UniProt Q6ZU65) the log2 fold change [3] was inactive: 0.041 and the log2 fold change [5] was inactive: -0.03.

In the case of U2AF2 (UniProt K7ELP8), the log2 fold change [3] was inactive: 0.061 and the log2 fold change [4] was inactive: 0.136.

With UBAP2L (UniProt F8W726) the log2 fold change [3] was inactive: -0.018.

With TULP3 isoform 2 (UniProt O75386) the log2 fold change [3] was inactive: -0.034 and the log2 fold change [5] was inactive: 0.032.

For TXNDC9 isoform 2 (UniProt O14530), the log2 fold change [5] was inactive: -0.041.

U2SURP isoform 2 (UniProt O15042) was tested, and the log2 fold change [3] was inactive: -0.024 and the log2 fold change [5] was inactive: -0.03.
